Data published in article doi:10.1101/867788.
Results are given in words; binding and its absence hold for the method and conditions named. In cells and extracts the contact can be indirect. These calls come from enrichment with a bait or labelling near it, and not all partners need be listed. A no says only that the protein was not detected with the bait.

Target: MYR1-3xHA (Toxoplasma gondii)
Test: affinity purification with mass spectrometry

B1: GRA7 (TGGT1_203310) (protein, UniProt O00933 27-236)
chain: ATASDDELMSRIRNSDFFDGQAPVDSLRPTNAGVDSKGTDDHLTTSMDKASVESQLPRREPLETEPDEQEEVHFRKRGVRSDAEVTDDNIYEEHTDRKVVPRKSEGKRSFKDLLKKLALPAVGMGASYFAADRLVPELTEEQQRGDEPLTTGQNVGTVLGFAALAAAAAFLGMGLTRTYRHFSPRKNRSRQPALEQEVPESGEDGEDARQ
B1 was tested, and the binding was “binds”.

B2: ROP17 (protein, UniProt Q2PAY3 22-608)
chain: LLLRSPTSNDVFGELVASAERAQPLATRLTKRISRLNFNDREDDFWEDHGDASWNNSYTLVNGRTTLGSENRRRPASHSLIERPYYRDGRLSPVLGVQERRGRSVHSYHEEPVSFFDQRAFDEYTFRRRSQLHRQRARAGLRSRIKQNVRRLWTSARGAVRGWGRRVRRKIGDLFVGHLMPQLRRLRFWDQGLPPVVPPLIGNEPGQASVALVAERMEARLREKTLTEKNPTEAQQAVGTYLINSAENTWFISIPGGRYILLKKRGFLGGGGFGLVYHVEHPTTGQPFALKIFVQRVMNNEVGDKISDLIEDEFGVMKYFPPEWTPARMYSELRFMVPLLKLRVLGKPEFQDARNHLRIFSVCALFPKAQGDLEEAAALLADMDRTNAYNMRMSSTIQMVKLLARFHAFGLVHGDVKLQNFLVDKSGLLLLSDFTQILRTNERRYPPVVTVLYMSPEIATCLITRLRNAIPYTAEIDSWMLGISLYRLWCGDFPFGITLDATALQVAGIVIRSSASSLDFASCHDIPEQFREMIVGFLRKTPGVRLSPQQALEQFSLLNWKGPSPASDTASESEPVSTEEAALLQKE
B2 was tested, and the binding was “no binding”.
